Assay results published in patent US20030152946A1, “Bh4-fused polypeptides” (priority 1999, published 2003).
No constants are given. Whether binding was seen depends on the method and setting. Some results given as binding are weak or reduced against the parent protein; the word gives no strength.

Chains of the proteins cited; added tags and fusions are not shown. Residues count along the entry.
UniProt Q9Z2L0, residues 2-283: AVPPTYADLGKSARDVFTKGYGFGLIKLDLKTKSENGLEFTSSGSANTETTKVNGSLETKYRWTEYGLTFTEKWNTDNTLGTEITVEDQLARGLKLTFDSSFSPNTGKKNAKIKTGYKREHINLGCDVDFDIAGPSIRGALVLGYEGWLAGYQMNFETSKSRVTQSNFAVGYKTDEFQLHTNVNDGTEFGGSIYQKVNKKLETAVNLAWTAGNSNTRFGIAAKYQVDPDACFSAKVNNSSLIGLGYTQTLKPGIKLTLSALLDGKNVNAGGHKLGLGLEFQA

Target: rat liver VDAC (voltage-dependent anion channel) (rat) (UniProt Q9Z2L0)
Assay: peptide incubated with isolated mitochondria, immunoprecipitation with anti-Bcl-xL S18, Western blot with anti-VDAC

B1: N-terminal (amino acid nos: 2 to 19) polypeptide of Bcl-xL (peptide)
peptide: SQSNRELVVDFLSYKLSQ
  binding: binds
